Experimental data taken from article PMC9547286, “LOXL2-dependent deacetylation of aldolase A induces metabolic reprogramming and tumor progression^☆” (Redox Biology, 2022).
Results are given in words; binding and its absence hold for the method and conditions named. Binding can be weak; no strength is given. Sequences can lack the tags named with a protein. For some assays here: In cells and extracts the contact can be indirect.

Legend:
GST-aldolase A (human) = molecular target: T1, GST-aldolase A (human) (UniProt P04075); experiment: pull-down; Purified GST-aldolase A or GST from bacteria on glutathione resins, incubated with immunopurified LOXL2-Flag or L2Δ13-Flag from HEK293T at 4 °C for 2 h; immunoblot with anti-Flag; both purified
T1 sequence: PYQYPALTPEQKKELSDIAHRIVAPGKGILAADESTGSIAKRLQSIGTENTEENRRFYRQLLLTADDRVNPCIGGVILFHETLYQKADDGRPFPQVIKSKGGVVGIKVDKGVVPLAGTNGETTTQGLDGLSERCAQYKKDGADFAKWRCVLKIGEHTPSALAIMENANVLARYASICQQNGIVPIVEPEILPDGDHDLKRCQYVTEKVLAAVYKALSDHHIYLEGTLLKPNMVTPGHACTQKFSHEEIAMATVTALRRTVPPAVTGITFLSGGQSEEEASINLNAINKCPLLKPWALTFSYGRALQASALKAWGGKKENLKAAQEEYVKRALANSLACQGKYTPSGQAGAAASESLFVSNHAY

aldolase A-Flag (human) = molecular target: T2, aldolase A-Flag (human) (UniProt P04075); experiment: co-IP; HEK293T cells co-transfected with LOXL2-HA or L2Δ13-HA and Flag-tagged glycolytic enzyme; whole cell lysates immunoprecipitated with anti-Flag, western blotting
T2 sequence: T1 sequence

binding (GST-aldolase A (human)) | binding (aldolase A-Flag (human)) | Substance
binds |  | L2Δ13-Flag (human) (enzyme)
 | binds | L2Δ13-HA (LOXL2 splice variant lacking exon 13) (human) (enzyme)
